According to PubChem BioAssay AID2685 (National Center for Advancing Translational Sciences (NCATS), 2010):
Some of the results follow. Shown are side measurements of this screen, not its main read-out; they come without a call. Most of these compounds were active or inconclusive in the main read-out, so they are no random draw. Words in brackets tell the shape of the fitted curve; partial curves, single points and poor fits give uncertain potencies.

Experiment: qHTS Assay for Lipid Storage Modulators in Drosophila S3 Cells;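 for cell number change: cells counted by Cell Tracker Red CMTPX staining in the red channel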
Conditions: BODIPY lipid droplet fluorescence, 18-24 h; for cell number change: measured here: cell count max response, cells fed with added oleic acid
Summary of the method: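 Drosophila S3 cells loaded with oleic acid (400 uM, as added) and compounds at several concentrations; lipid droplets imaged by 488-nm laser-scanning cytometry, 500–530 nm intensity and object ratio to cell channel. Percent activity normalized to 20 uM Triacsin C.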

[1] = measured here: cell number channel AC50, cells fed with added oleic acid
[2] = measured here: lipid fluorescence (Fed channel) AC50, cells fed with added oleic acid

Compound | cell number change [%] | AC50 [1] | AC50 [2]
CCN1CCN(C(=O)c2ccc(C(F)(F)F)cc2)CC1 | -48.7 | 25.1 µM [falling, single point] | 35.5 µM [falling, single point]
Cc1ccc(C(=O)c2c3ccc(C(F)(F)F)cc3[n+]([O-])n2CCCC(N)=O)cc1 | -12 |  | 0.517 µM [falling, partial curve, poor fit]
CC(C)n1c(SCC(=O)Nc2nncs2)nnc1-c1ccco1 | -2.31 |  | 6.51 µM [falling, partial curve, poor fit]
Cc1cc(C)c(OCCCNCc2ccccc2)c(Br)c1 | 5.28 |  | 29.1 µM [rising, single point]
c1coc(Cn2c(SCc3nc4ccccc4[nH]3)nnc2-c2cnccn2)c1 | 83.1 | 0.82 µM [rising, full curve] | 0.092 µM [rising, single point]
O=C(/C=C/c1cccnc1)/C=C/c1cccnc1 | -69.9 | 5.8 µM [falling, full curve] | 2.91 µM [falling, full curve]
COc1cccc(NC(=O)CCNC(=O)C2CCN(S(=O)(=O)c3ccc(F)cc3)CC2)c1 | 43.6 | 6.51 µM [rising, full curve, poor fit] | 16.4 µM [rising, single point]
COc1ccc(NC(=S)/N=C(\N)Nc2nc(C)c3ccc(C)cc3n2)cc1 | -3.69 | 4.11 µM [rising, single point] | 
COC(=O)c1cc(-c2ccc3c(c2)OCO3)nc2ccccc12 | -26.3 |  | 
COc1ccccc1C(=O)Nc1ccc2c3c(cccc13)CC2 | 34.5 | 4.11 µM [rising, partial curve, poor fit] | 2.59 µM [rising, partial curve]
COc1ccc(/C=C2\SC(N3CCc4ccccc4C3)=NC2=O)cc1 | -9.91 | 6.51 µM [rising, partial curve, poor fit] | 6.51 µM [rising, partial curve]
C/C(Nc1ccc(C)cc1)=C(/C#N)C(N)=O | 73.1 |  | 6.51 µM [falling, partial curve]
O=C1CCCN1CCCNc1ccc2nnc(CCC(=O)N3CCN(c4ccc(F)cc4)CC3)n2n1 |  |  | 6.51 µM [falling, partial curve, poor fit]
COc1cccc(-c2nc(C(=O)NCC3CCCO3)cc3c2[nH]c2ccccc23)c1 (centres undefined) | -12.3 |  | 29.1 µM [falling, single point]
Cc1ccc(-c2nnn(CCC(=O)Nc3ccc4c(c3)OCO4)n2)cc1 | -23.4 |  | 13 µM [rising, partial curve]
CC(CCc1ccco1)NC(=O)Cn1nc(Cc2ccncc2)c2ccccc2c1=O (centres undefined) | -13.7 |  | 
O=C(CCN1C(=O)/C(=C/c2ccc(F)cc2)SC1=S)N[C@@H](CO)Cc1ccccc1 |  |  | 29.1 µM [falling, partial curve]
CCC(Sc1nc2ccccc2s1)C(=O)Nc1nnc(C)s1 (centres undefined) | 8.45 |  | 29.1 µM [rising, single point]
CN(C(=O)COC(=O)CSc1ccc(C(N)=O)cc1[N+](=O)[O-])C1CCCCC1 | -4.04 |  | 

Compound | cell number change [%] | AC50 [1] | AC50 [2]
CCOC(=O)c1c(NC(=O)COC(=O)Cn2c(C)nc3ccccc32)sc2c1CCCC2 | -5.29 | 0.259 µM [falling, full curve, poor fit] | 0.411 µM [falling, partial curve]
COc1ccc(NC(=O)Cn2nnc(C(=O)NCc3ccc(C)cc3)c2N)cc1OC | -1.53 |  | 29.1 µM [rising, single point]
Cn1c(=O)[nH]c(=O)c2c1nc(Sc1ccccc1)n2CCc1ccccc1 | -11.1 |  | 1.16 µM [falling, partial curve]
CCCN(CCC)c1nc(N)c(C#N)c(CC#N)c1C#N |  | 6.51 µM [rising, single point] | 
O=C1NC(=O)/C(=C/c2ccco2)N1 | -0.481 |  | 3.66 µM [rising, full curve]
CCOP(=O)(OCC)/C(C#N)=C/c1cc(OC)ccc1OC | -55.9 | 1.3 µM [falling, full curve, poor fit] | 
CC1=CN2CC(O)CN=C2C=C1 (centres undefined) | -2.6 | 0.146 µM [rising, full curve, poor fit] | 
COc1ccccc1N1CCN(C(=O)/C=C/c2cccs2)CC1 | -43.4 | 25.9 µM [falling, single point] | 
O=C(Nc1ccc2c(c1)OCO2)c1nn(-c2ccccc2)c(=O)c2ccccc12 | 228 | 8.2 µM [rising, partial curve] | 6.51 µM [rising, partial curve]
COc1ccc2oc(=O)c(C(=O)N3CCN(c4ccccc4)CC3)cc2c1 | 1.75 |  | 6.51 µM [falling, single point]
CCN1C(=O)C2CCCCN2c2ccc(C(=O)NCCOC)cc21 (centres undefined) | 22.5 |  | 2.31 µM [rising, full curve]
CCCCNC(=O)CSc1nc2n[nH]c(C)c2c(=N)n1-c1cccc(Cl)c1C | -33.5 | 18.4 µM [falling, single point] | 29.1 µM [falling, single point]
CCn1c(SCC(=O)c2ccccc2)nnc1-c1cc2cc(Br)ccc2o1 | 51.9 | 20.6 µM [rising, single point] | 
CC(C)CC(NC(=O)C1CCC(C)CC1)C(=O)Nc1ccccc1F (centres undefined) | 9.01 |  | 
CCOc1cc(C2NC(=O)NC(O)(C(F)(F)F)C2C(=O)c2ccc(OC)cc2)ccc1O (centres undefined) | -24.2 | 1.64 µM [falling, single point] | 
CCOC(=O)c1ccccc1NC(=O)CC1Nc2ccccc2NC1=O (centres undefined) | -0.135 |  | 1.84 µM [rising, single point]
CN(C)S(=O)(=O)c1cccc(NC(=O)CCc2nc3cc(S(=O)(=O)N4CCOCC4)ccc3n2C)c1 | 15.3 |  | 14.6 µM [rising, single point]
CC1CC(C)CN(S(=O)(=O)c2cc3c4c(c2)C(C)C(=O)N4CCC3)C1 (centres undefined) |  |  | 29.1 µM [falling, single point]
CCOC(=O)CSc1nc2sc(C)c(C)c2c(=O)n1N | 2.9 |  | 0.461 µM [rising, partial curve, poor fit]

Compound | cell number change [%] | AC50 [1] | AC50 [2]
COc1ccc(OC)c(C2=NOC(C(=O)N3CCN(c4ccccc4)CC3)C2)c1 (centres undefined) | -4.65 |  | 0.116 µM [falling, full curve, poor fit]
O=C(COC(=O)/C=C/c1ccc(Br)o1)Nc1ccc2[nH]c(=O)[nH]c2c1 |  |  | 25.9 µM [falling, partial curve, poor fit]
Cc1cc(Cl)ccc1OCC(=O)Nc1ccccc1N1CCOCC1 | 33.8 | 7.31 µM [rising, partial curve, poor fit] | 6.51 µM [rising, single point]
O=C1CC(Sc2nnnn2C2CCCCC2)C(=O)N1c1ccccc1 (centres undefined) | -76.8 | 20.6 µM [falling, partial curve] | 23.1 µM [falling, partial curve]
Nc1cccc2c1C(=O)N(C(=O)/C=C/c1cccc(Br)c1)C2=O | -61.1 | 18.4 µM [falling, single point] | 16.4 µM [falling, single point]
N#Cc1nc(-c2ccc(F)cc2)oc1NCc1ccccc1 | -29.5 |  | 5.17 µM [rising, full curve, poor fit]
CCC(=O)Nc1c(-c2ccc(C)cc2)c(=O)c2ccccc2n1C | -3.55 |  | 
COc1cc(C(=O)NCCCc2nc3ccccc3n2Cc2cc(C)ccc2C)cc(OC)c1OC | -37.8 | 23.1 µM [falling, single point] | 23.1 µM [falling, single point]
COc1ccc(/C=C(\NC(=O)c2ccc(C)cc2)C(=O)NCCCn2ccnc2)cc1 | 21.6 |  | 0.146 µM [rising, partial curve, poor fit]
CCOC(=O)C1C(O)=CC(=O)CC1c1ccccc1 (centres undefined) | -36.8 | 7.31 µM [falling, single point] | 29.1 µM [rising, single point]
O=C(C1CCCN(S(=O)(=O)c2ccccc2)C1)N1CCN(c2ncccn2)CC1 (centres undefined) |  |  | 23.1 µM [falling, partial curve, poor fit]
COc1ccc(/C=C(\NC(=O)c2ccccc2)C(=O)NCC2CCCO2)cc1 (centres undefined) | 26.4 | 7.31 µM [rising, partial curve] | 
CC(C)NC(=S)N/N=C/c1sc(N2CCCCC2)nc1-c1cccs1 |  | 1.84 µM [rising, partial curve, poor fit] | 2.59 µM [falling, single point]
Cc1ccccc1CN1CCN(CC(=O)NC(C)c2ccccc2)CC1 (centres undefined) | 13.9 |  | 1.64 µM [rising, partial curve, poor fit]
COCCCN(C(=O)Cc1csc(-c2cccc(Cl)c2)n1)c1c(N)n(Cc2ccccc2)c(=O)[nH]c1=O | -0.283 |  | 
Fc1ccccc1CCNc1nnnn1-c1ccccc1 |  | 4.11 µM [rising, partial curve] | 6.51 µM [rising, single point]
Cc1ccc2ncnc(NCCCCCC(=O)O)c2c1 | 15.3 |  | 0.00517 µM [falling, full curve]
CCOc1ccc(C(=O)N2CCN(Cc3ccccc3)CC2)cc1OCC | -0.324 |  | 4.11 µM [rising, full curve, poor fit]
